In publication PMC3349750 one finds binding data, which are given here for one substance.

The chains behind the UniProt entries cited, without tags or fusion partners.
UniProt Q59U10: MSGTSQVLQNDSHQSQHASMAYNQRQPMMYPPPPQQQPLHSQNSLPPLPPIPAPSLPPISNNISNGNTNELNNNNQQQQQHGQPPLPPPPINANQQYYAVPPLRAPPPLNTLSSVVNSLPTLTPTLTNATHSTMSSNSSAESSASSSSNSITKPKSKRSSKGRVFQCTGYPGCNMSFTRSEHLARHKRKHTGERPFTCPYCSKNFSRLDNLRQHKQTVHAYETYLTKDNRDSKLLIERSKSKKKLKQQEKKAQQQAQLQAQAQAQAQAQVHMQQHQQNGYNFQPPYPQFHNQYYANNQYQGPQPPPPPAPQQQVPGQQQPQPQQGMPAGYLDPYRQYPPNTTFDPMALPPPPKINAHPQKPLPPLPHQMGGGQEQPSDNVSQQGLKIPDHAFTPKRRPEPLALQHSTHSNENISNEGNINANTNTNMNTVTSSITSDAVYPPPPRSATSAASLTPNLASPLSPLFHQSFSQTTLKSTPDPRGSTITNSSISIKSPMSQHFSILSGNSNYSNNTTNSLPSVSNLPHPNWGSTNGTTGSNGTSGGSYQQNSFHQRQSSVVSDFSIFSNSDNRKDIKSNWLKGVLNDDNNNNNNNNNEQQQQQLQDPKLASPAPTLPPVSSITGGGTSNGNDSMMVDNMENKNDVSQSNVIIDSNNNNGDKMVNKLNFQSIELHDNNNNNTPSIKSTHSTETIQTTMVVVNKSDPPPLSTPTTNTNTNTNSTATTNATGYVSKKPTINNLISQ
UniProt Q5AP53: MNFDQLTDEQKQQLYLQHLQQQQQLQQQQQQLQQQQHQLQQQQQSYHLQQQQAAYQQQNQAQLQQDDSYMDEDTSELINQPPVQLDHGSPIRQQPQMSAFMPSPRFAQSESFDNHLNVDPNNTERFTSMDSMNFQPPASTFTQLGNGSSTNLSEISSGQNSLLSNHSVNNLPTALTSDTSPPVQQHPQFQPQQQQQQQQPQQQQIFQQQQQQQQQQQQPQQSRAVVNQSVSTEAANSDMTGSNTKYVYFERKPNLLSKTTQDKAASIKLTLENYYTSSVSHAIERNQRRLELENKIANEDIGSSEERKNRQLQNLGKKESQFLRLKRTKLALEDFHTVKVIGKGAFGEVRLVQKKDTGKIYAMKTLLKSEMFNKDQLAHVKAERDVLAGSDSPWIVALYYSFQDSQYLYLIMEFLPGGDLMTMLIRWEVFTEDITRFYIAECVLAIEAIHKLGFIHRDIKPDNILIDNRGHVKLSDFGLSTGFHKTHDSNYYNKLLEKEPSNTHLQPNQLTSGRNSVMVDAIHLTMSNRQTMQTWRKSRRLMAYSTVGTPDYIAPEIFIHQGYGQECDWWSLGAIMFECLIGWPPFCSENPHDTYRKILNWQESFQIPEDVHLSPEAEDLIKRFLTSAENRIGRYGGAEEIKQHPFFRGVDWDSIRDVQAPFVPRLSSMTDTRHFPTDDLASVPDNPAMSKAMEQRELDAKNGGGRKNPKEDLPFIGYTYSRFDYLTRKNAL

These are yes or no findings as the source states them, for the method shown. In cells and extracts the contact can be indirect. Some entries that bind do so weakly or less than the wild type.

This test concerns the target Transcription factor Bcr1, HA-tagged (Bcr1-HA) (C. albicans) (UniProt Q59U10). Kind of test: co-IP; protein extracts of the C. albicans CBK1-myc BCR1-HA strain (JC1151) immunoprecipitated with anti-HA antibodies; SDS-PAGE, probed with anti-myc or anti-HA; the CBK1-myc strain (JC305) was the negative control; the protocol is as in ref. 17.

In the case of “NDR/LATS kinase Cbk1, myc-tagged (Cbk1-myc) (from UniProt Q5AP53 1-732) (enzyme)”, the binding result is “binds”.
